No constants are given. Whether binding was seen depends on the method and setting. For some of these results: A result given as binding can be weak or reduced; the word gives no strength.

The chains behind the UniProt entries cited, without tags or fusion partners. Where a name states a change or a piece, a line headed by the entry shows the natural chain unless it says otherwise.
UniProt P61812: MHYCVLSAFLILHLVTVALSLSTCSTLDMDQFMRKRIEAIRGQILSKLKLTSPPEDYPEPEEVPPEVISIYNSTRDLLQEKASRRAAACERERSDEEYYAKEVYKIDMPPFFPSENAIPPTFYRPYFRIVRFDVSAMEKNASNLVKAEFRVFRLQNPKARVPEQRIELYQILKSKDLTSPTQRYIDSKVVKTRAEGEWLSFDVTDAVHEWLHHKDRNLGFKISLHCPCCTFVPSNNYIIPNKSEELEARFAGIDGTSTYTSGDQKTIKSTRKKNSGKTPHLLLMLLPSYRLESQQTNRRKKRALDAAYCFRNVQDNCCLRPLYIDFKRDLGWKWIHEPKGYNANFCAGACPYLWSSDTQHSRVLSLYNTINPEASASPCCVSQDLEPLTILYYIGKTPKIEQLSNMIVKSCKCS

For test [1], the target named is recombinant human TGFβ2 (human) (UniProt P61812). The test is described as follows: BIACore, scFv injected over immobilised antigen.
The target is the same in test [2]. The test is described as follows: phage and soluble ELISA.
The target is the same in test [3]. Kind of test: BIACore, antigen on the chip.
For test [4], the target named is keyhole limpet haemocyanin (keyhole limpet). The test is described as follows: ELISA, antigen coated at 10 µg/ml, anti-human Fc alkaline phosphatase conjugate, OD405 nm [a].
In test [5] the target is cytochrome c. The test is described as above.
Test [6] has as its target interleukin-1. Described as above.
The target in test [7] is glyceraldehyde phosphate dehydrogenase. The description is as above.
Test [8] has as its target tumour necrosis factor α (TNFα). Described as above.
Test [9] addresses recombinant human TGFβ2 (human) (UniProt P61812). The test is described as follows: ELISA, TGFβ coated at 0.2 µg/ml.
The target is the same in test [10]. Kind of test: competition ELISA on coated TGFβ2 after pre-incubation with acid activated PC-3 conditioned media.
Test [11] has the same target. The test is described as follows: competition ELISA on plate-coated TGFβ2 (200 ng/ml), 4 µg 6B1 IgG4 in 400 µl, detection with anti-human IgG alkaline phosphatase conjugate, absorbance at 405 nm; competitor: active TGFβ2 in acid activated PC3 conditioned media.
The target of test [12] is keyhole limpet haemocyanin (keyhole limpet). Kind of test: ELISA, antigen coated at 10 µg/ml.
Test [13] has as its target cytochrome c. The test is described as follows: ELISA, antigen coated at 10 µg/ml.
The target in test [14] is interleukin-1. The test is described as follows: ELISA, antigen coated at 10 µg/ml.
The target of test [15] is glyceraldehyde phosphate dehydrogenase. Kind of test: ELISA, antigen coated at 10 µg/ml.
Test [16] addresses tumour necrosis factor α (TNFα). Kind of test: ELISA, antigen coated at 10 µg/ml.
For test [17], the target named is recombinant human TGFβ2 (human) (UniProt P61812). The test is described as follows: ELISA, TGFβ2 coated at 0.2 µg/ml, bound IgG detected with mouse anti-human Fc alkaline phosphatase conjugate and PNPP, OD405 nm [a].
Test [18] concerns the target keyhole limpet haemocyanin (keyhole limpet). Kind of test: ELISA, antigen coated at 10 µg/ml, anti-human Fc alkaline phosphatase conjugate, OD405 nm [b].
Test [19] concerns the target cytochrome c. Described as above.
Test [20] has as its target interleukin-1. Described as above.
Test [21] has as its target glyceraldehyde phosphate dehydrogenase. The test is described as above.
The target in test [22] is tumour necrosis factor α (TNFα). The test is described as above.
Test [23] concerns the target recombinant human TGFβ2 (human) (UniProt P61812). Kind of test: ELISA, TGFβ2 coated at 0.2 µg/ml, bound IgG detected with mouse anti-human Fc alkaline phosphatase conjugate and PNPP, OD405 nm [b].
For test [24] the target is unchanged. Kind of test: phage and soluble ELISA on coated TGFβ2.

B1: 31G9 scFv (scFv)
scFv: QVQLVQSGGGVVQPGRSLRLSCAASGFTFSSYGMHWVRQAPGKGLEWVAVISYDGSIKYYADSVKGRFTISRDNSKNTLYLQMNSLRAEDTAVYYCARTGEYSGYDTSGVELWGQGTTVTVSSGGGGSGGGGSGGGGSDIVMTQSPSTLSASVGDRVTITCRASQGISSWLAWYQQKPGRAPKVLIYKASTLESGVPSRFSGSGSGTDFTLTISSLQPEDFATYYCQQSYSTPWTFGQGTKLEIKR
As to B1, in test [1], the binding entry is on record as “binds”.

B2: 6B1 scFv (scFv)
scFv: EVQLVESGGGVVQPGRSLRLSCAASGFTFSSYGMHWVRQAPGKGLEWVAVIWYDGSNKYYADSVKGRFTISRDNSKNTLYLQMDSLRAEDTAVYYCGRTLESSLWGQGTLVTVSSGGGGSGGGGSGGGGSSSELTQDPAVSVALGQTVRITCQGDSLRSYYASWYQQKPGQAPVLVIYGKNNRPSGIPDRFSGSSSGNTASLTITGAQAEDEADYYCNSRDSSSTHRGVFGGGTKLTVLG
As to B2, the binding entry in [2] was “binds”.

B3: 6B1 IgG4 (antibody, V domains shown)
VH: EVQLVESGGGVVQPGRSLRLSCAASGFTFSSYGMHWVRQAPGKGLEWVAVIWYDGSNKYYADSVKGRFTISRDNSKNTLYLQMDSLRAEDTAVYYCGRTLESSLWGQGTLVTVSS
VL: SSELTQDPAVSVALGQTVRITCQGDSLRSYYASWYQQKPGQAPVLVIYGKNNRPSGIPDRFSGSSSGNTASLTITGAQAEDEADYYCNSRDSSSTHRGVFGGGTKLTVLG
In the case of B3, the binding entry in [3] is reported as “binds”; in [4], “no binding”; in test [5] it was “no binding”; in test [6] it was “no binding”; in [7], “no binding”; in test [8], “no binding”. Further, the binding entry in test [9] is given as “binds”; in test [10] it was “binds”; in test [11] it was “binds”; in test [12], “no binding”; in test [13] it was “no binding”; in test [14], “no binding”. For the same molecule, the binding entry in [15] is given as “no binding”; in [16], “no binding”; in test [17], “binds”.

B4: 6H1 IgG4 (antibody, V domains shown)
VH: EVQLVESGGGVVQPGRSLRLSCAASGFTFSSYGMHWVRQAPGKGLEWVAVIWYDGSNKYYADSVKGRFTISRDNSKNTLYLQMDSLRAEDTAVYYCGRTLESSLWGQGTLVTVSS
VL: DVVMTQSPSSLSASVGDRVTITCRASQGISNYLAWYQQKPGKAPKLLIYKASTLESGVPSRFSGSGSGTEFTLTISSLQPEDFATYYCQQSYSTPRTFGQGTKVDIKR
Consider B4, for which the binding result in test [3] is on record as “binds”.

B5: 6A5 IgG4 (antibody, V domains shown)
VH: EVQLVESGGGVVQPGRSLRLSCAASGFTFSSYGMHWVRQAPGKGLEWVAVIWYDGSNKYYADSVKGRFTISRDNSKNTLYLQMDSLRAEDTAVYYCGRTLESSLWGQGTLVTVSS
VL: SSELTQDPAVSVALGQTVRITCQGDSLRSYYASWYQQKPGQAPVLVIYGKNNRPSGIPDRFAGSNSGNTASLTITGAQAEDEADYYCSSRDSSGNHVVFGGGTKLTVLG
On to B5, for which the binding result is “binds” in test [3]; “no binding” in [18]; “no binding” in [19]; “no binding” in test [20]; “no binding” in test [21]; “no binding” in test [22]. Further, the binding entry in test [9] is “binds”; in test [23], “binds”; in [12], “no binding”; in [13], “no binding”; in [14], “no binding”; in test [15], “no binding”. The binding result in test [16] was “no binding”.

B6: 27C1/10A6 IgG4 (antibody, V domains shown)
VH: QVQLVESGGGVVQPGRSLRLSCAASGLTFSSYDMHWVRQPPAKGLEWVAVISYDGSSKYYADSVKGRFTISRDNSKNTLYLQMNSLRAEDTAVYYCARTGEYSGYDTSGVELWGQGTTVTVSS
VL: HVILTQDPAVSVALGQTVRITCQGDSLKSYYASWYQQKPGQAPVLVIYGENSRPSGIPDRFSGSSSGNTASLTITGAQAEDEADYYCNSRDSSGTHLEVFGGGTKLTVLG
On to B6, for which the binding entry in test [3] is reported as “binds”.

B7: 11E6 scFv (scFv)
scFv: EIQLVESGGGVVQPGRSLRLSCAASGFTFSSYAMHWVRQAPAKGLEWVAVISYDGSNKYYADSVKGRFTISRDNSKNTLYLQMNSLRAEDTAVYYCARAGLETTWGQGTLVTVSSSGGGGGSGGGGSGGGGSEVVLTQSPSSLSASVGDRVTITCRASQGIGDDLGWYQQKPGKAPILLIYGTSTLQSGVPSRFSGSGSGTDFTLTINSLQPEDFATYYCLQDSNYPLTFGGGTRLEIKR
Consider B7, for which the binding entry in [2] was “binds”.

B8: 6H1 scFv (scFv)
scFv: EVQLVESGGGVVQPGRSLRLSCAASGFTFSSYGMHWVRQAPGKGLEWVAVIWYDGSNKYYADSVKGRFTISRDNSKNTLYLQMDSLRAEDTAVYYCGRTLESSLWGQGTLVTVSSGGGGSGGGGSGGGGSDVVMTQSPSSLSASVGDRVTITCRASQGISNYLAWYQQKPGKAPKLLIYKASTLESGVPSRFSGSGSGTEFTLTISSLQPEDFATYYCQQSYSTPRTFGQGTKVDIKR
Take B8: the binding result in test [2] is on record as “binds”.

B9: Gold-11 scFv (scFv)
scFv: QVTLKESGGSVVQPGRSLRLSCAASGFTFSSYGMHWVRQAPGKGLEWVAVISYDGSNKYYADSVKGRFTISRDNSKNTQYLQMNSLRAEDTAEYYCARTGEYSGHASTGENVWGRGTLVTVSSGGGGSGGGGSGGGGSSYVLTHPPSVSGTPGQRVTISCSGGRSNIGSNTVKWYQQLPGTPPKLLIYGNDQRPSGIPDRFSGSKSGTSASLAITGVQAEDEADYYCQSYDSSLRGSRVFGTGTKVTVLG
For B9, the binding result in test [24] is on record as “binds”.

B10: 14F12 scFv (scFv)
scFv: EIQLVESGGGVVQPGRSLRLSCAASGFTFSSYAMHWVRQAPAKGLEWVAVISYDGSNKYYADSVKGRFTISRDNSKNTLYLQMNSLRAEDTAVYYCARAGLETTWGQGTLVTVSSSGGGGGSGGGGSGGGGSSSELTQDPAVSVALGQTVRITCQGDSLRNYYANWYQQKPGQAPVLVIYGKNNRPSGIPDRFSGSSSGNTASLTITGARAEDEGVYYCNSRDSSGAVFGGGTKLTVLG
For the molecule B10, the binding result in test [2] is listed as “binds”.

B11: 6A5 scFv (scFv)
scFv: EVQLVESGGGVVQPGRSLRLSCAASGFTFSSYGMHWVRQAPGKGLEWVAVIWYDGSNKYYADSVKGRFTISRDNSKNTLYLQMDSLRAEDTAVYYCGRTLESSLWGQGTLVTVSSGGGGSGGGGSGGGGSSSELTQDPAVSVALGQTVRITCQGDSLRSYYASWYQQKPGQAPVLVIYGKNNRPSGIPDRFAGSNSGNTASLTITGAQAEDEADYYCSSRDSSGNHVVFGGGTKLTVLG
On to B11, for which the binding entry in test [2] is recorded as “binds”.

Values taken from patent US20050049403A1.
